The source of these data is patent US7972831B2, “Lipases from thermophilic anaerobes” (Novozymes A/S, priority 2004, dated 2011).

This data set in a line: Effect of temperature on lipase activity. The data set is classed as biochemical. The following applies: for optimum activity (temperature): 10 minutes reaction.

B1: lipase of SEQ ID NO: 2: polypeptide having lipase activity from Thermoanaerobacter thermohydrosulfuricus DSM 7021 and T. brockii subsp. brockii DSM 1457 (protein, listed as Thermoanaerobacter thermohydrosulfuricus)
chain: MQKAVEITYNGKTLRGMMHLPDDVKGKVPMVIMFHGFTGNKVESHFIFVKMSRALEKVGIGSVRFDFYGSGESDGDFSEMTFSSELEDARQILKFVKEQPTTDPERIGLLGLSMGGAIAGIVAREYKDEIKALVLWAPAFNMPELIMNESVKQYGAIMEQLGFVDIGGHKLSKDFVEDISKLNIFELSKGYDKKVLIVHGTNDEAVEYKVSDRILKEVYGDNATRVTIENADHTFKSLEWEKKAIEESVEFFKKELLKG
As for B1, the “optimum activity (temperature)” value was determined as 75 °C and the “activity above 85-90° C.” value is listed as “little activity”.

B2: lipase of SEQ ID NO: 4: polypeptide having lipase activity from Caldanaerobacter subterraneus subsp. tengcongensis DSM 15242 (protein, listed as Thermoanaerobacter tencongensis)
chain: VQKAVEFTYNRKTLRGMLHLPEGVSEKVPMVVMFHGFTGNKVESHFIFVKMSRALEKVGIGSVRFDFYGSGESDGDFSEMTFSGELEDARQILDFVKRQPTTDVERIGLLGLSMGGAIAGIIARERKEDVKALVLWAPAFNMPELIMGEGARQYGAIMESLGYVDIGGLKLDRAFVEDIAKFNIFELSRGYEGKVLIVHGTNDEAVEYRISDRILQEVYGDNAFRVTIEGADHTFKNLEWERKAIEESVKFFERELKG
As to B2, the “optimum activity (temperature)” value is 75 °C and the “activity above 85-90° C.” value was “little activity”.
